From patent US20050119186A1, “Potent peptide inhibitors and methods of use” (priority 2003, published 2005)
No constants are given. Whether binding was seen depends on the method and setting.

The chains behind the UniProt entries cited, without tags or fusion partners. Residues count along the entry.
UniProt P05362, residues 28-532: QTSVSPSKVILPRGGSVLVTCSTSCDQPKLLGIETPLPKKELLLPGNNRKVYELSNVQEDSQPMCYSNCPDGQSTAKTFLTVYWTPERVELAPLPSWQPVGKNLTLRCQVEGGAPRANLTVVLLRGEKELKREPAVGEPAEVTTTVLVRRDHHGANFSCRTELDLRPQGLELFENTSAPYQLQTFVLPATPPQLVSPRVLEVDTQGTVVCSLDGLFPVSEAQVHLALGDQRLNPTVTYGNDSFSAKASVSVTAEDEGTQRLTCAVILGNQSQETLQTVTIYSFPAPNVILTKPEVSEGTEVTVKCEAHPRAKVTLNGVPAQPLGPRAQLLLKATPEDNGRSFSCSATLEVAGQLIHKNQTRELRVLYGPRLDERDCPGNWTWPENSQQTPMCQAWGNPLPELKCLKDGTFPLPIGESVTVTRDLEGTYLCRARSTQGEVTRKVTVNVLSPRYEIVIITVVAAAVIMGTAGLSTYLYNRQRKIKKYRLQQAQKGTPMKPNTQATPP

The binders below were run against intercellular adhesion molecule-1 (ICAM-1) (human) (UniProt P05362) (assay: cellular aggregation blocking assay (LFA-1/ICAM-1 dependent), peptide 10 µM to 1 mM).

binding, no binding (tested: >1000 µM):
CVLRMRSAC (cyclic: disulfide bridge between the first and the last cysteine) [Table 1 peptide 3, … (SEQ ID NO:23)]
CLVRMRSAC (cyclic: disulfide bridge between the first and the last cysteine) [Table 1 peptide 5, … (SEQ ID NO:25)]
CLLRMRSLC (cyclic: disulfide bridge between the first and the last cysteine) [Table 1 peptide 8, … (SEQ ID NO:28)]
CALRMRSIC (cyclic: disulfide bridge between the first and the last cysteine) [Table 1 peptide 11, … (SEQ ID NO:31)]
CLARMRSIC (cyclic: disulfide bridge between the first and the last cysteine) [Table 1 peptide 12, … (SEQ ID NO:32)]
CLLRMASIC (cyclic: disulfide bridge between the first and the last cysteine) [Table 1 peptide 14, … (SEQ ID NO:34)]
